Test [1] addresses T1, SAMHD1-HA (human SAMHD1, wild type, from pVR1012-SAMHD1-HA) (human), Q9Y3Z3. As to the kind of experiment: co-IP; anti-HA IP of SAMHD1-HA; endogenous MX2 detected by immunoblotting with an MX2-specific antibody. As to conditions: remark: other sources report otherwise.
Test [2] concerns the target T1, SAMHD1-HA (human SAMHD1, wild type, …). As to the kind of experiment: co-IP; HEK293T cells cotransfected, lysed 48 h later (150 mM Tris pH 7.5, 150 mM NaCl, 1% Triton X-100); anti-HA agarose beads at 4°C for 3 h or overnight; six washes; immunoblotting. Conditions: remark: other sources report otherwise.

No constants are given. Whether binding was seen depends on the method and setting. Binding seen in cells or lysates may run through a third protein. Some results given as binding are weak or reduced against the parent protein; the word gives no strength. For part of these data: Tags and fused reporters may be left off the sequences shown.

Our source for the binding values is PMC11253599.

B1: endogenous MX2 (myxovirus resistance protein 2) of PMA-differentiated U937 cells, P20592 1-715 (protein)
chain: MSKAHKPWPYRRRSQFSSRKYLKKEMNSFQQQPPPFGTVPPQMMFPPNWQGAEKDAAFLAKDFNFLTLNNQPPPGNRSQPRAMGPENNLYSQYEQKVRPCIDLIDSLRALGVEQDLALPAIAVIGDQSSGKSSVLEALSGVALPRGSGIVTRCPLVLKLKKQPCEAWAGRISYRNTELELQDPGQVEKEIHKAQNVMAGNGRGISHELISLEITSPEVPDLTIIDLPGITRVAVDNQPRDIGLQIKALIKKYIQRQQTINLVVVPCNVDIATTEALSMAHEVDPEGDRTIGILTKPDLMDRGTEKSVMNVVRNLTYPLKKGYMIVKCRGQQEITNRLSLAEATKKEITFFQTHPYFRVLLEEGSATVPRLAERLTTELIMHIQKSLPLLEGQIRESHQKATEELRRCGADIPSQEADKMFFLIEKIKMFNQDIEKLVEGEEVVRENETRLYNKIREDFKNWVGILATNTQKVKNIIHEEVEKYEKQYRGKELLGFVNYKTFEIIVHQYIQQLVEPALSMLQKAMEIIQQAFINVAKKHFGEFFNLNQTVQSTIEDIKVKHTAKAENMIQLQFRMEQMVFCQDQIYSVVLKKVREEIFNPLGTPSQNMKLNSHFPSNESSVSSFTEIGIHLNAYFLETSKRLANQIPFIIQYFMLRENGDSLQKAMMQILQEKNRYSWLLQEQSETATKRRILKERIYRLTQARHALCQFSSKEIH
With B1, the binding result in test [1] is reported as “binds”.

B2: mCherry-MX2 (from pmCherry-C1-MX2), P20592 1-715 (protein)
chain: MSKAHKPWPYRRRSQFSSRKYLKKEMNSFQQQPPPFGTVPPQMMFPPNWQGAEKDAAFLAKDFNFLTLNNQPPPGNRSQPRAMGPENNLYSQYEQKVRPCIDLIDSLRALGVEQDLALPAIAVIGDQSSGKSSVLEALSGVALPRGSGIVTRCPLVLKLKKQPCEAWAGRISYRNTELELQDPGQVEKEIHKAQNVMAGNGRGISHELISLEITSPEVPDLTIIDLPGITRVAVDNQPRDIGLQIKALIKKYIQRQQTINLVVVPCNVDIATTEALSMAHEVDPEGDRTIGILTKPDLMDRGTEKSVMNVVRNLTYPLKKGYMIVKCRGQQEITNRLSLAEATKKEITFFQTHPYFRVLLEEGSATVPRLAERLTTELIMHIQKSLPLLEGQIRESHQKATEELRRCGADIPSQEADKMFFLIEKIKMFNQDIEKLVEGEEVVRENETRLYNKIREDFKNWVGILATNTQKVKNIIHEEVEKYEKQYRGKELLGFVNYKTFEIIVHQYIQQLVEPALSMLQKAMEIIQQAFINVAKKHFGEFFNLNQTVQSTIEDIKVKHTAKAENMIQLQFRMEQMVFCQDQIYSVVLKKVREEIFNPLGTPSQNMKLNSHFPSNESSVSSFTEIGIHLNAYFLETSKRLANQIPFIIQYFMLRENGDSLQKAMMQILQEKNRYSWLLQEQSETATKRRILKERIYRLTQARHALCQFSSKEIH
B2: in test [2], the binding entry is “binds”.

B3: Myc-MX2-mCherry, P20592 1-715 (protein)
chain: MSKAHKPWPYRRRSQFSSRKYLKKEMNSFQQQPPPFGTVPPQMMFPPNWQGAEKDAAFLAKDFNFLTLNNQPPPGNRSQPRAMGPENNLYSQYEQKVRPCIDLIDSLRALGVEQDLALPAIAVIGDQSSGKSSVLEALSGVALPRGSGIVTRCPLVLKLKKQPCEAWAGRISYRNTELELQDPGQVEKEIHKAQNVMAGNGRGISHELISLEITSPEVPDLTIIDLPGITRVAVDNQPRDIGLQIKALIKKYIQRQQTINLVVVPCNVDIATTEALSMAHEVDPEGDRTIGILTKPDLMDRGTEKSVMNVVRNLTYPLKKGYMIVKCRGQQEITNRLSLAEATKKEITFFQTHPYFRVLLEEGSATVPRLAERLTTELIMHIQKSLPLLEGQIRESHQKATEELRRCGADIPSQEADKMFFLIEKIKMFNQDIEKLVEGEEVVRENETRLYNKIREDFKNWVGILATNTQKVKNIIHEEVEKYEKQYRGKELLGFVNYKTFEIIVHQYIQQLVEPALSMLQKAMEIIQQAFINVAKKHFGEFFNLNQTVQSTIEDIKVKHTAKAENMIQLQFRMEQMVFCQDQIYSVVLKKVREEIFNPLGTPSQNMKLNSHFPSNESSVSSFTEIGIHLNAYFLETSKRLANQIPFIIQYFMLRENGDSLQKAMMQILQEKNRYSWLLQEQSETATKRRILKERIYRLTQARHALCQFSSKEIH
For B3, in test [2], the binding result is on record as “binds”.
